Results published in PubChem BioAssay AID504834 (National Center for Advancing Translational Sciences (NCATS), 2011).
About 22,000 (6.9%) of roughly 320,000 compounds were called active. The shares of active, inactive and inconclusive entries below differ from those in the screen. The call rests on the fitted dose curve; in most records, active means well fitted inhibition curve with a large enough effect; inconclusive means small, poorly fitted or top-dose-only effect, or another doubt; inactive means no such curve, though single readings can be large or run the other way. Potencies beside an inconclusive call are fits to weak or partial responses and may not hold up.
Potency means the concentration at half of the fitted maximal effect.

Assay: Primary qHTS for delayed death inhibitors of the malarial parasite plastid, 96 hour incubation
Conditions: P. falciparum luciferase reporter growth; series mostly up to 28.7 µM
Method in brief: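 Parasite growth measured via integrated firefly luciferase reporter in P. falciparum. Infected erythrocytes at 2% hematocrit, 0.05% parasitemia final were treated 96 hours at 37 C under 5% CO2, and luminescence was read.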
In the case of CCS(=O)(=O)N1CCC(C(=O)NCCC2=CCCCC2)CC1, the Potency is reported as inconclusive: 18.5 µM [inhibitor, single point]. With O=C(Nc1ccc(NC(=O)c2ccc3c(c2)OCO3)cc1)c1cccc(Cl)c1 the Potency was “inactive”. With COc1ccc(OC)c2c1sc(=NC(=O)c1cccc(N3C(=O)CCC3=O)c1)n2C the Potency was inconclusive: 18.5 µM [inhibitor, single point]. In the case of COc1ccccc1NC(=O)CN(c1ccccc1OC)S(=O)(=O)c1ccccc1, the Potency is reported as “inactive”. For CCOC(=O)C1CCCN(C(=O)c2cc3c(C)nc4ccccc4c3o2)C1 (configuration not stated), the Potency was inconclusive: 16.5 µM [inhibitor, single point]. For Nc1cccc2c1C(=O)N(CCOc1ccccc1F)C2=O, the Potency was “inactive”. In the case of O=C(COc1ncnc2scc(-c3ccc(F)cc3)c12)NCc1ccco1, the Potency is reported as “inactive”. With CCc1ccc(OCC(=O)NC(C)(C)C)cc1 the Potency was “inactive”. With CCCSc1cc(Cl)nc(N)n1 the Potency was “inactive”. For O=C(Nc1ccc(F)cc1F)c1ccc2c(=O)n3c(nc2c1)CCC3, the Potency was “inactive”. In the case of CC(=O)Nc1cccc(OCCCNS(=O)(=O)c2ccc(F)cc2)c1, the Potency is reported as “inactive”. For Cc1cc(C)c2nc(-c3ccccn3)cc(C(=O)Nc3ccc(S(=O)(=O)Nc4cc(C)on4)cc3)c2c1, the Potency was inconclusive: 11.7 µM [inhibitor, single point]. In the case of Cc1ccsc1C(=O)OCC(=O)Nc1cccc(S(=O)(=O)N2CCOCC2)c1, the Potency is reported as inconclusive: 11.7 µM [inhibitor, single point]. For CCc1ccc(NC(=S)N2CCCC2)cc1, the Potency was “inactive”. For COc1ccc(NS(=O)(=O)c2cc(NC(=O)c3ccco3)ccc2N2CCCCC2)cc1, the Potency was active: 9.28 µM. In the case of COc1ccccc1Oc1ccc(Oc2ccccc2OC)cc1, the Potency is reported as “inactive”. For CCCOc1ccc(C(=O)NC(=S)Nc2nc(C)c(C(=O)N(C)C)s2)cc1, the Potency was “inactive”. With Cc1ccc(NC2=CC(=O)CC(c3ccco3)C2)c(N)c1 (configuration not stated) the Potency was “inactive”. For CCC(C)NC(=O)CN(c1ccc(OC)cc1)S(=O)(=O)c1ccccc1 (configuration not stated), the Potency was inconclusive: 11.7 µM [inhibitor, single point]. In the case of COc1ccc(NC(=O)Nc2cccc(C(F)(F)F)c2)cn1, the Potency is reported as inconclusive: 18.5 µM [inhibitor, single point]. In the case of CCn1c(COc2ccccc2C)nc2ccccc21, the Potency is reported as inconclusive: 14.7 µM [inhibitor, single point]. In the case of CCOC(=O)c1ccc(COC(=O)CCc2nc3ccccc3[nH]c2=O)o1, the Potency is reported as inconclusive: 1.65 µM [inhibitor, full curve]. With Oc1c(CN2CCOCC2)cc(COCc2ccccc2)c2cccnc12 the Potency was “inactive”. In the case of Cc1ccc(SCc2ccc(C(=O)Nc3ccccc3Br)cc2)cc1, the Potency is reported as inconclusive: 18.5 µM [inhibitor, single point]. In the case of CCN1CCN(Cc2ccc(NC(=O)c3ccc(C)c(NC(=O)c4c[nH]c5cc(C(F)(F)F)ccc5c4=O)c3)cc2C(F)(F)F)CC1, the Potency is reported as active: 0.522 µM. In the case of CCN1CCN(c2nc(-c3cccs3)nc3ccccc23)CC1, the Potency is reported as inconclusive: 10.4 µM [inhibitor, single point]. In the case of Cn1cc(S(=O)(=O)CC(=O)Nc2ccc3c(c2)OCO3)c2ccccc21, the Potency is reported as inconclusive: 1.65 µM [inhibitor, partial curve, poor fit]. For CCOC(=O)N1CCC(=NNC(=O)c2ccccc2F)CC1, the Potency was “inactive”. With CC(C)Oc1ccc(S(=O)(=O)N2CCCCC2)cc1NC(=O)CN1C(=O)NC2(CCCC2)C1=O the Potency was inconclusive: 9.28 µM [inhibitor, partial curve, poor fit]. For O=C(N[C@@H](Cc1ccccc1)C(=O)N1CCC2(CC1)NCCc1[nH]cnc12)c1cccc(Br)c1, the Potency was inconclusive: 4.15 µM [inhibitor, partial curve, poor fit]. With CC1CN(C(=O)c2cc3cc(F)ccc3[nH]2)CC(C)O1 (configuration not stated) the Potency was inconclusive: 10.4 µM [inhibitor, single point]. With O=C(c1ccccc1)N1CCN(S(=O)(=O)c2cccs2)CC1 the Potency was inconclusive: 13.1 µM [inhibitor, partial curve]. For COc1ccc(CC(=O)NNC(=O)CN(C)S(=O)(=O)c2ccc(Cl)cc2)cc1OC, the Potency was inconclusive: 1.47 µM [inhibitor, full curve]. In the case of COc1cc(C2C3=C(CCCC3=O)Nc3c2c(C)nn3-c2cccc(C)c2)cc(OC)c1O (configuration not stated), the Potency is reported as inconclusive: 14.7 µM [inhibitor, single point]. For COc1ccccc1CN1CC(C(=O)NCCSc2nnnn2C)CCC1=O (configuration not stated), the Potency was inconclusive: 14.7 µM [inhibitor, partial curve, poor fit]. For Cc1cc(NC(=O)c2ccc([N+](=O)[O-])cc2)no1, the Potency was inconclusive: 18.5 µM [inhibitor, single point]. In the case of Cc1cccc(C)c1NC(=O)CN(C)C(=O)c1ccc2c(=O)n3c(nc2c1)CCC3, the Potency is reported as inconclusive: 18.5 µM [inhibitor, single point]. In the case of O=C(c1ccc(Cl)c(S(=O)(=O)N2CCCC2)c1)N1CCN(c2ccccc2F)CC1, the Potency is reported as inconclusive: 4.15 µM [inhibitor, partial curve, poor fit]. For Cc1ccccc1NC1=NC2(CCCC2)N=C(N)N1, the Potency was inconclusive: 14.7 µM [inhibitor, partial curve, poor fit]. In the case of Cc1ccc(-c2cc(C(=O)Nc3ccncc3)c3ccccc3n2)cc1, the Potency is reported as active: 1.47 µM. For Cn1c(=O)[nH]c(=O)c2c1nc(N1CCCCC1)n2CC(O)CN1CCCCC1 (configuration not stated), the Potency was inconclusive: 1.85 µM [inhibitor, full curve, poor fit]. In the case of Cc1c(C(=O)c2ccc(Cl)c(Cl)c2)cnc2cc3c(cc12)OCO3, the Potency is reported as inconclusive: 13.1 µM [inhibitor, partial curve, poor fit]. For CCOC(=O)CSc1nc(C)cc(=O)[nH]1, the Potency was inconclusive: 18.5 µM [inhibitor, single point]. For Cc1ccc(-n2c(SCC(=O)N3CCOCC3)nc(O)c(Cc3ccccc3)c2=O)cc1, the Potency was inconclusive: 16.5 µM [inhibitor, single point]. With CCOC(=O)C(C)Sc1nc(-c2ccccc2)nc2ccccc12 (configuration not stated) the Potency was “inactive”. For C/C(Cn1cnc([N+](=O)[O-])n1)=N\NC(=O)c1ccccc1, the Potency was “inactive”. For C/C(N)=C(/C#N)C(=O)COC(=O)C1Cc2ccccc2CN1S(C)(=O)=O (configuration not stated), the Potency was inconclusive: 9.28 µM [inhibitor, partial curve, poor fit]. For CCn1c(=O)cc(SCC(=O)N2CCN(C(=O)c3ccco3)CC2)c2ccccc21, the Potency was active: 5.86 µM. In the case of Cn1c(C(O)c2ccc(Cl)cc2)nc(Cl)c1Cl (configuration not stated), the Potency is reported as inconclusive: 9.28 µM [inhibitor, partial curve, poor fit]. For Cc1ccc(-n2ncc3c2CC(C)(C)CC3NC(=O)c2ccncc2)cc1 (configuration not stated), the Potency was inconclusive: 11.7 µM [inhibitor, partial curve]. With COc1cc(CNCCc2c[nH]c3ccccc23)ccc1OCc1ccccc1F the Potency was inconclusive: 18.5 µM [inhibitor, single point]. With COc1ccc(-c2nc(N)n(C(=O)c3cccs3)n2)cc1 the Potency was inconclusive: 10.4 µM [inhibitor, partial curve]. With O=C(C1=C[C@H](c2ccccc2)C[C@H](OCCCCO)O1)N1CCN(Cc2ccccc2)CC1 the Potency was inconclusive: 10.4 µM [inhibitor, single point]. In the case of Cc1nnc(C)n1/N=C/c1ccccn1, the Potency is reported as inconclusive: 0.0029 µM [inhibitor, full curve, poor fit]. For CN1C(=O)c2ccccc2NC(=O)C1Cc1ccccc1 (configuration not stated), the Potency was active: 11.7 µM. For Cc1ccc(S(=O)(=O)n2nc(-c3ccco3)nc2N)cc1, the Potency was “inactive”. With Cc1nnc2sc(COc3ccccc3)nn2c1=O the Potency was inconclusive: 2.94 µM [inhibitor, full curve]. With COc1ccccc1OCC(=O)NNC(=O)CCCC(=O)NNC(=O)COc1ccccc1OC the Potency was “inactive”. For Cc1ccccc1NC(NC(=O)c1cccnc1)C(Cl)(Cl)Cl (configuration not stated), the Potency was “inactive”. With CC(=O)N1CCN(C(=O)c2cccc(NS(=O)(=O)c3ccc(Br)cc3)c2)CC1 the Potency was “inactive”. For C/C(=N/NC(=O)c1cccc(Br)c1)C1CC2CCC1C2 (configuration not stated), the Potency was “inactive”. For Cc1cc(NC(=O)C2C3C(=O)N(CC4CCCO4)C(C(=O)NCc4ccccc4)C34C=CC2(C)O4)no1 (configuration not stated), the Potency was inconclusive: 18.5 µM [inhibitor, single point]. For Cc1cc(C)n(CC(O)COc2ccccc2C(=O)Nc2ccccc2)n1 (configuration not stated), the Potency was inconclusive: 9.28 µM [inhibitor, partial curve, poor fit]. In the case of O=C(COC(=O)c1cccc(Cl)c1Cl)NCCN1C(=O)CSC1=O, the Potency is reported as “inactive”. With CC1Cc2cc(S(=O)(=O)N3CCC(C(=O)N4CCCCC4)CC3)ccc2N1C(=O)C1CC1 (configuration not stated) the Potency was inconclusive: 5.22 µM [inhibitor, partial curve, poor fit]. In the case of CCOc1cccc(C(=O)Nc2ccc3c(c2)OCCO3)c1, the Potency is reported as “inactive”. In the case of Cc1ccc(/C=N/n2c(C)nnc2C)s1, the Potency is reported as “inactive”. For CN(Cc1c(F)cccc1Cl)C(=O)CNC(=O)c1cccs1, the Potency was inconclusive: 18.5 µM [inhibitor, single point]. In the case of N#CC(C#N)=C(Nc1ccccc1)c1ccccc1, the Potency is reported as inconclusive: 4.15 µM [inhibitor, partial curve, poor fit]. In the case of CCOC(=O)C1(CCOc2ccccc2)CCN(Cc2ccc(O)c(OC)c2)CC1, the Potency is reported as “inactive”. With Cc1cc(C)n(-c2c(F)c(F)c(CN3CCCCC3)c(F)c2F)n1 the Potency was inconclusive: 18.5 µM [inhibitor, single point]. With Cc1ccc(C)c(NC(=O)CCn2nc(C)cc2C)c1 the Potency was inconclusive: 3.29 µM [inhibitor, single point].
